In the assay the target is T1, PE labeled CLL1-Fc reagent (Creative Biomart) (UniProt Q5QGZ9).
T1 sequence (PE label, looked up): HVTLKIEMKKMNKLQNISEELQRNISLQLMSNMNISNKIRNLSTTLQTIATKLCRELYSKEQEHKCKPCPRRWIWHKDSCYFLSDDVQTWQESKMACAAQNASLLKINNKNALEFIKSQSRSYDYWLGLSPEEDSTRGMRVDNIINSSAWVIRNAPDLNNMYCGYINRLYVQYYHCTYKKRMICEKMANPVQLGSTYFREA
In words: flow cytometry; PE labeled CLL1-Fc staining of transduced T cells.

Results are given in words; binding and its absence hold for the method and conditions named. Some binding calls cover weakened binding; strength is not graded here. Tags and fused reporters may be left off the sequences shown.

B1: MAGEA4-reactive, HLA-A2-restricted TCR embedded with tandem VHHs targeting human CD33 and CLL1; TRB-P2A-CLL1-CD33.VHH-mLNK.1xG4S-TRA (SEQ ID NO: 97) (TCR)
TCR beta: DSGVTQTPKHLITATGQRVTLRCSPRSGDLSVYWYQQSLDQGLQFLIQYYNGEERAKGNILERFSAQQFPDLHSELNLSSLELGDSALYFCASSGGDGDEQFFGPGTRLTVLEDLKNVFPPEVAVFEPSKAEIAHTQKATLVCLATGFYPDHVELSWWVNGKEVHSGVSTDPQPLKEQPALNDSRYCLSSRLRVSATFWQNPRNHFRCQVQFYGLSENDEWTQDRAKPVTQIVSAEAWGRADCGITSASYHQGVLSATILYEILLGKATLYAVLVSALVLMAMVKRKDSRG
TCR alpha: EVQLVESGGGEVQPGGSLRLSCAASGFLFSIYDMNWYRQAPGKEREWVAGITNNGYSTAYAESVKGRFTISRDNAKNTIYLQMSSLRAEDTAVYYCHADLTKAYDVEYAWGQGTLVTVKPGGGGSGGGGSEVQLVESGGGEVQPGGSLRLSCAASRSSGIDVMGWYRQAPGKERELVAEISGVGDTNYAASLADRFTVSRDNAKNTVYLQMSSLRAEDTAVYYCNAHSFLDLVGAWGQGTLVTVKPLEKTGGGGSAQKITQTQPGMFVQEKEAVTLDCTYDTSDPSYGLFWYKQPSSGEMIFLIYQGSYDQQNATEGRYSLNFQKARKSANLVISASQLGDSAMYFCAMSGGYTGGFKTIFGAGTRLFVKANIQNPDPAVYQLRDSKSSDKSVCLFTDFDSQTNVSQSKDSDVYITDKTVLDMRSMDFKSNSAVAWSNKSDFACANAFNNSIIPEDTFFPSSDVPCDVKLVEKSFETDTNLNFQNLLVIVLRILLLKVAGFNLLMTLRLWSS
As for B1, the binding result was “binds”.

Values taken from US20240342215A1.
